Measured data: PubChem BioAssay AID1259425 (University of Nebraska Medical Center, 2018)
Assay: 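Seek colon cancer weak points whose silencing resembles KSR1 loss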 (primary screen). System: HCT116 human colon cancer cells. Knock-down reagent: siRNA pool against human genes, 50 nM siRNA. Detection: 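After 50 nM siRNA pool, branched-DNA assay measures six marker transcripts per well, minus blank, normalised to the geometric mean of two housekeeping transcripts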. Scale: BNIP3L mRNA: higher = more BNIP3L transcript after knockdown; NDRG1 mRNA: higher = more NDRG1 transcript after knockdown.
Here is one part, drawn at random, of about 14,000 reagents. Not all columns of the deposit are shown. Not stated in the record: the time to read-out.

What is on record for FGF6?
BNIP3L mRNA, set 1: 0.0996; NDRG1 mRNA, set 1: 0.291

For MMAB, how do the results read?
BNIP3L mRNA, set 1: 0.152; NDRG1 mRNA, set 1: 0.189

What is on record for ALDH3A2?
BNIP3L mRNA, set 1: 0.116; NDRG1 mRNA, set 1: 0.0965

What is on record for CCN1?
BNIP3L mRNA, set 1: 0.0513; NDRG1 mRNA, set 1: 0.845

With EAF1, what does the deposit list?
BNIP3L mRNA, set 1: 0.197; NDRG1 mRNA, set 1: 0.762

How did the screen score DSTN?
BNIP3L mRNA, set 1: 0.0616; NDRG1 mRNA, set 1: 0.247

How did the screen score MRPS34?
BNIP3L mRNA, set 1: 0.169; NDRG1 mRNA, set 1: 0.367

What did the screen give for CLEC5A?
BNIP3L mRNA, set 1: 0.0523; NDRG1 mRNA, set 1: 0.136

How did the screen score RPL13?
BNIP3L mRNA, set 1: 0.442; NDRG1 mRNA, set 1: 0.468

For TREH, what was measured?
BNIP3L mRNA, set 1: 0.149; NDRG1 mRNA, set 1: 0.153

With ALG5, how do the results read?
BNIP3L mRNA, set 1: 0.111; NDRG1 mRNA, set 1: 0.143

With ACTR8, what was measured?
BNIP3L mRNA, set 1: 0.0976; NDRG1 mRNA, set 1: 0.164

What did the screen give for KRAS?
BNIP3L mRNA, set 1: 0.202; NDRG1 mRNA, set 1: 0.133

With FSCB, how do the results read?
BNIP3L mRNA, set 1: 0.31; NDRG1 mRNA, set 1: 0.447

For COL6A3, what does the deposit list?
BNIP3L mRNA, set 1: 0.0769; NDRG1 mRNA, set 1: 0.531

Which result is listed for BDH2?
BNIP3L mRNA, set 1: 0.222; NDRG1 mRNA, set 1: 0.315

With LRP4, how do the results read?
BNIP3L mRNA, set 1: 0.136; NDRG1 mRNA, set 1: 0.113

With CRYL1, how do the results read?
BNIP3L mRNA, set 1: 0.115; NDRG1 mRNA, set 1: 0.521

What is on record for ANKRD40CL?
BNIP3L mRNA, set 1: 0.297; NDRG1 mRNA, set 1: 0.556

With PPIP5K1, how do the results read?
BNIP3L mRNA, set 1: 0.167; NDRG1 mRNA, set 1: 0.184

For ASIC5, how do the results read?
BNIP3L mRNA, set 1: 0.0957; NDRG1 mRNA, set 1: 0.305

How did the screen score CINP?
BNIP3L mRNA, set 1: 0.0508; NDRG1 mRNA, set 1: 0.116

With H2AC12, what does the deposit list?
BNIP3L mRNA, set 1: 0.133; NDRG1 mRNA, set 1: 0.525

What is on record for HSD17B4?
BNIP3L mRNA, set 1: 0.113; NDRG1 mRNA, set 1: 0.34

How did the screen score NOC2L?
BNIP3L mRNA, set 1: 0.114; NDRG1 mRNA, set 1: 0.24

For ADCY2, what does the deposit list?
BNIP3L mRNA, set 1: 0.0406; NDRG1 mRNA, set 1: 0.105

With ADAM7, what does the deposit list?
BNIP3L mRNA, set 1: 0.102; NDRG1 mRNA, set 1: 0.159

With GLOD4, how do the results read?
BNIP3L mRNA, set 1: 0.107; NDRG1 mRNA, set 1: 0.0881

A portion of the results above:
MMAB | BNIP3L mRNA, set 1: 0.152; NDRG1 mRNA, set 1: 0.189
ALDH3A2 | BNIP3L mRNA, set 1: 0.116; NDRG1 mRNA, set 1: 0.0965
